Chains of the proteins cited; added tags and fusions are not shown. Residues count along the entry.
UniProt Q91ZX7, 20-4545: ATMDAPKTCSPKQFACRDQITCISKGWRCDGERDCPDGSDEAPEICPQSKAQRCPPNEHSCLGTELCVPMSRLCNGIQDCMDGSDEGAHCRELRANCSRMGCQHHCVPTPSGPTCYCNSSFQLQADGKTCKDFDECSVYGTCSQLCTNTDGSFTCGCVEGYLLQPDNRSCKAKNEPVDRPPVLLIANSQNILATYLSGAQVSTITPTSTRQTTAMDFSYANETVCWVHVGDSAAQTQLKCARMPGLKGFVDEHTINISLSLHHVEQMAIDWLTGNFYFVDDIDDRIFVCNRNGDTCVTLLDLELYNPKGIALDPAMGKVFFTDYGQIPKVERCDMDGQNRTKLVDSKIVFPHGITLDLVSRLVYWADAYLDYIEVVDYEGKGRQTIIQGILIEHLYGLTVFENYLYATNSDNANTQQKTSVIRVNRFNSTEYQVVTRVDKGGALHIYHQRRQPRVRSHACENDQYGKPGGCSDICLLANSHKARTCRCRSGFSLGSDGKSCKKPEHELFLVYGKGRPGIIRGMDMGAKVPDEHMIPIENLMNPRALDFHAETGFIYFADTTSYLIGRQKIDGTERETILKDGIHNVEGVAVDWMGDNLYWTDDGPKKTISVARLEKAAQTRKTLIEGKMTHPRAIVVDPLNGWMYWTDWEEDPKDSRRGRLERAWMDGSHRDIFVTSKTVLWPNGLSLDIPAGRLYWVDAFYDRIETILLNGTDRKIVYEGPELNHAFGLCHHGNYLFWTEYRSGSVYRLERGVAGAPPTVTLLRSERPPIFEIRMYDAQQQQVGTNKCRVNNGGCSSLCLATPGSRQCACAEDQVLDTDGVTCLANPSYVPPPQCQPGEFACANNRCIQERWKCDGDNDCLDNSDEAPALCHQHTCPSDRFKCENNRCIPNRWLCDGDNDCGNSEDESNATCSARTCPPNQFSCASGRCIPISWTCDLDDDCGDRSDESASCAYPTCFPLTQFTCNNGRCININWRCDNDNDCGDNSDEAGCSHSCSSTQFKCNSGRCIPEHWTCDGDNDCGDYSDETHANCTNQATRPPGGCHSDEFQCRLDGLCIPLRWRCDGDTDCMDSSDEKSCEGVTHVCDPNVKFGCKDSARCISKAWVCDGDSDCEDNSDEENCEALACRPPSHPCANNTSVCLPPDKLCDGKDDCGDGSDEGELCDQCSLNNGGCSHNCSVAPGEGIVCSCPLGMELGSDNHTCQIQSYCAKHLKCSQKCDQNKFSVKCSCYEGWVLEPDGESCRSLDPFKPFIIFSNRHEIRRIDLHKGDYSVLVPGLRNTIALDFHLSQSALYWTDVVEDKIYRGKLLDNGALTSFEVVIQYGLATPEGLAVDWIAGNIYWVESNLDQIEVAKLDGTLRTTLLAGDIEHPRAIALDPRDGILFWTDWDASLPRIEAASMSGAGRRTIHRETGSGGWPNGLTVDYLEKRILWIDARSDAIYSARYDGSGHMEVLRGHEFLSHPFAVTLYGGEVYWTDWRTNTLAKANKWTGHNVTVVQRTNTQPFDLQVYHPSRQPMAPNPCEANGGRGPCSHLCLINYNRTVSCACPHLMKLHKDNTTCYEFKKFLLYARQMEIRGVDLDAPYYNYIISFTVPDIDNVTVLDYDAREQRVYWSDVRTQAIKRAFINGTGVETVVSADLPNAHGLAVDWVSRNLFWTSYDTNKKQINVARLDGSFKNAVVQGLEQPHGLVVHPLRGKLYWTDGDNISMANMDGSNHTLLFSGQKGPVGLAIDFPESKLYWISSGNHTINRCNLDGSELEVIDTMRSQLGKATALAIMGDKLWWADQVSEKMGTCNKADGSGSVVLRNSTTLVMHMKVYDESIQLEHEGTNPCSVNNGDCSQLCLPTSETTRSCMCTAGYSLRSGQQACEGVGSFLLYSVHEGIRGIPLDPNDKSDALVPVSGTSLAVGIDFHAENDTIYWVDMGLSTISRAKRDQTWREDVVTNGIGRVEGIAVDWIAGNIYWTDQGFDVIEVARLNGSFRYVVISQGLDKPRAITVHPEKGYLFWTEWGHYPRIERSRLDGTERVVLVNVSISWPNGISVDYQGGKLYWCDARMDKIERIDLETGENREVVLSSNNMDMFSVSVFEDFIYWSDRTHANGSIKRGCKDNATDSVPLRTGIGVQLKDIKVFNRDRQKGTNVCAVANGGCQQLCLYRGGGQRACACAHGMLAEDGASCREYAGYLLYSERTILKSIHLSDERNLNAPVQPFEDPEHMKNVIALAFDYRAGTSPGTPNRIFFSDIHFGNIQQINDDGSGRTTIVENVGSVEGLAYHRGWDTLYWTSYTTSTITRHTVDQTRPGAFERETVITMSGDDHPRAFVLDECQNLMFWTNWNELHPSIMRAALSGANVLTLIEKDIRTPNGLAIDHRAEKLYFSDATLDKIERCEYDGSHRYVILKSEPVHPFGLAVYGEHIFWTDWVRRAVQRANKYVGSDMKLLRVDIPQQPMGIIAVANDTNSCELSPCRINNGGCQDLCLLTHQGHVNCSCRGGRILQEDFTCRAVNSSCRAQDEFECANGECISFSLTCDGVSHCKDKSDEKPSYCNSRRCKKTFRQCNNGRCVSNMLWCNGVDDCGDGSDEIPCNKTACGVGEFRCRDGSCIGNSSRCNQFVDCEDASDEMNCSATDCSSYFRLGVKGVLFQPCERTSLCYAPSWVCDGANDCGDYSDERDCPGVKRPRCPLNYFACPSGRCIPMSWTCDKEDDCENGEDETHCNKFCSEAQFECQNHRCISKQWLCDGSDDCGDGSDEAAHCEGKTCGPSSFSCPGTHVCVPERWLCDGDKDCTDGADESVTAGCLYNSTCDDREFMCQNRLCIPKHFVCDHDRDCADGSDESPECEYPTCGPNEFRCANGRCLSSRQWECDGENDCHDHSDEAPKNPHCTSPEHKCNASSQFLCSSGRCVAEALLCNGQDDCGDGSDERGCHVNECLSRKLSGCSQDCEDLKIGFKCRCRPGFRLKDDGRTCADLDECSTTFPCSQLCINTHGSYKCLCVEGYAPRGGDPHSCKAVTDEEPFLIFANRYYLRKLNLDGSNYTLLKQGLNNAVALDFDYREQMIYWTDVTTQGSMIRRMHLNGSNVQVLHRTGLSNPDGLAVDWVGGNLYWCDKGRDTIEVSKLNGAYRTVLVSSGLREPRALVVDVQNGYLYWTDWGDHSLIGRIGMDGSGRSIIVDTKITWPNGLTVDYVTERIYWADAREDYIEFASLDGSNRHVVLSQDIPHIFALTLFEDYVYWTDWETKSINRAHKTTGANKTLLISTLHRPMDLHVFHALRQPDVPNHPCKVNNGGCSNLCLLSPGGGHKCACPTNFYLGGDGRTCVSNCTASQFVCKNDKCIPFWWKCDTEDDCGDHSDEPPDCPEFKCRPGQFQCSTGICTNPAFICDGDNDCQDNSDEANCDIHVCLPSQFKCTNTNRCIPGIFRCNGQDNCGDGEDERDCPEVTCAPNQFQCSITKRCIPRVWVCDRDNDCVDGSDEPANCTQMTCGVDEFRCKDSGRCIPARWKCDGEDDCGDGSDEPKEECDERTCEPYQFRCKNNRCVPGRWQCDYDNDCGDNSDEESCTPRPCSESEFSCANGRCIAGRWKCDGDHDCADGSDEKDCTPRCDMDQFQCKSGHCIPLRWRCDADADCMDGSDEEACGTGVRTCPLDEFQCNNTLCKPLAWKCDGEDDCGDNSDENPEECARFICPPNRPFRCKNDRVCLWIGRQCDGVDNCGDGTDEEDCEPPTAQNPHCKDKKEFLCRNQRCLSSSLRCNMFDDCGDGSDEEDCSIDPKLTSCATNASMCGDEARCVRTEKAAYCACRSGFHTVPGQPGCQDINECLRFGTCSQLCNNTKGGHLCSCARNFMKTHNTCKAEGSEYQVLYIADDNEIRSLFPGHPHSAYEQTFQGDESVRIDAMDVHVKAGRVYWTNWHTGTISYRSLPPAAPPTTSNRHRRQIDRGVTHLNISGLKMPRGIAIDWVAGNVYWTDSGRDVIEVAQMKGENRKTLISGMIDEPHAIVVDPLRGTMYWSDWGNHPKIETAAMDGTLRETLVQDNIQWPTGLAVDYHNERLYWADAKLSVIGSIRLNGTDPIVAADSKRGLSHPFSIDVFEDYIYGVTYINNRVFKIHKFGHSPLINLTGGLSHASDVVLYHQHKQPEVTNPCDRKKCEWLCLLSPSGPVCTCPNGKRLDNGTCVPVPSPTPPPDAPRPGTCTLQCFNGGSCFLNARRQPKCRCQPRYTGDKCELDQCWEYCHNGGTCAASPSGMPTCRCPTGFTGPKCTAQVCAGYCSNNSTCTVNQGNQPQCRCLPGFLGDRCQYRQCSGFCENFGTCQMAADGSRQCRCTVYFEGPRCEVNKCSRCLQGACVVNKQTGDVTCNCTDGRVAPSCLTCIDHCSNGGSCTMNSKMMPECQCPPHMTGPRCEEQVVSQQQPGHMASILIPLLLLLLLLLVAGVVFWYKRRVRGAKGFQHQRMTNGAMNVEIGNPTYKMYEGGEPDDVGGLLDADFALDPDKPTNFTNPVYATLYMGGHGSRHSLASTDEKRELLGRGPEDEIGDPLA

According to patent US7741283B2, “Compositions and methods for inhibiting cell proliferation” (St. Louis University, priority 2003, dated 2010):

Biological target: T1, LRP-1 (Mus musculus, UniProt Q91ZX7)
T1 construct: endogenous in cells; host or cells: MEF (mouse embryonic fibroblasts)
Assay: 125I-α2M* binding to MEF cells at pH 7.4
Details: read-out: IC50, inhibition of ^125I-α2M* binding to LRP-1

OCCN1CCN(CCCN2c3ccccc3Sc3ccc(C(F)(F)F)cc32)CC1 [fluphenazine]
IC50: 25 to 30 µM
